# Experimental data from the supplement of paper PMC6411743.
# The chains behind the UniProt entries cited, without tags or fusion partners. Where a name states a change or a piece, a line headed by the entry shows the natural chain unless it says otherwise.
# UniProt Q9BQF6: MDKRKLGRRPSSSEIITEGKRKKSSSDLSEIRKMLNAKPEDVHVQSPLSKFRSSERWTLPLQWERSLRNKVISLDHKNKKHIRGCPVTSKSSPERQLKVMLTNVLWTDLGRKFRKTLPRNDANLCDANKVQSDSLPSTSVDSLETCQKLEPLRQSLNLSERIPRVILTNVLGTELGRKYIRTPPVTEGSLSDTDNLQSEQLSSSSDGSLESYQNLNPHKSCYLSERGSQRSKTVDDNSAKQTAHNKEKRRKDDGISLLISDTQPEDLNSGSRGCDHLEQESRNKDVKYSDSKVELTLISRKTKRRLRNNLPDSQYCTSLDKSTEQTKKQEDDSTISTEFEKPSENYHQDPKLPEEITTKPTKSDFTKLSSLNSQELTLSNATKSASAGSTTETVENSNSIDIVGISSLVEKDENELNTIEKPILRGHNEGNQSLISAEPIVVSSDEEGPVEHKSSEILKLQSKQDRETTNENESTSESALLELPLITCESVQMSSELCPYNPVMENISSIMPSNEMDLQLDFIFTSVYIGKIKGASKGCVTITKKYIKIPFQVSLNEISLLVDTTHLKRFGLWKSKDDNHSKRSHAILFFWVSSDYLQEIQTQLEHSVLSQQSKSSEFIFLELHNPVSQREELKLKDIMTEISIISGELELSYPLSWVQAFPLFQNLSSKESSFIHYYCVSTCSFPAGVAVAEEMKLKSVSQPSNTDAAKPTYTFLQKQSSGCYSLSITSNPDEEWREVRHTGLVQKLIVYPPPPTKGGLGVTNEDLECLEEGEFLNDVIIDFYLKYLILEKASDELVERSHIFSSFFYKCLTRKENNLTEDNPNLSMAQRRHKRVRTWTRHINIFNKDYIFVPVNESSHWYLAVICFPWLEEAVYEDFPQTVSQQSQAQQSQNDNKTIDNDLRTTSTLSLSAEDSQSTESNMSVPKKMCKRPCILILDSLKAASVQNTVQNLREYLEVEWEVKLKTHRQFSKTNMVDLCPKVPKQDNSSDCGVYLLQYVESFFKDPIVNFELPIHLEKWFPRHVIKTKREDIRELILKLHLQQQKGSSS
# UniProt Q99996, whole entry: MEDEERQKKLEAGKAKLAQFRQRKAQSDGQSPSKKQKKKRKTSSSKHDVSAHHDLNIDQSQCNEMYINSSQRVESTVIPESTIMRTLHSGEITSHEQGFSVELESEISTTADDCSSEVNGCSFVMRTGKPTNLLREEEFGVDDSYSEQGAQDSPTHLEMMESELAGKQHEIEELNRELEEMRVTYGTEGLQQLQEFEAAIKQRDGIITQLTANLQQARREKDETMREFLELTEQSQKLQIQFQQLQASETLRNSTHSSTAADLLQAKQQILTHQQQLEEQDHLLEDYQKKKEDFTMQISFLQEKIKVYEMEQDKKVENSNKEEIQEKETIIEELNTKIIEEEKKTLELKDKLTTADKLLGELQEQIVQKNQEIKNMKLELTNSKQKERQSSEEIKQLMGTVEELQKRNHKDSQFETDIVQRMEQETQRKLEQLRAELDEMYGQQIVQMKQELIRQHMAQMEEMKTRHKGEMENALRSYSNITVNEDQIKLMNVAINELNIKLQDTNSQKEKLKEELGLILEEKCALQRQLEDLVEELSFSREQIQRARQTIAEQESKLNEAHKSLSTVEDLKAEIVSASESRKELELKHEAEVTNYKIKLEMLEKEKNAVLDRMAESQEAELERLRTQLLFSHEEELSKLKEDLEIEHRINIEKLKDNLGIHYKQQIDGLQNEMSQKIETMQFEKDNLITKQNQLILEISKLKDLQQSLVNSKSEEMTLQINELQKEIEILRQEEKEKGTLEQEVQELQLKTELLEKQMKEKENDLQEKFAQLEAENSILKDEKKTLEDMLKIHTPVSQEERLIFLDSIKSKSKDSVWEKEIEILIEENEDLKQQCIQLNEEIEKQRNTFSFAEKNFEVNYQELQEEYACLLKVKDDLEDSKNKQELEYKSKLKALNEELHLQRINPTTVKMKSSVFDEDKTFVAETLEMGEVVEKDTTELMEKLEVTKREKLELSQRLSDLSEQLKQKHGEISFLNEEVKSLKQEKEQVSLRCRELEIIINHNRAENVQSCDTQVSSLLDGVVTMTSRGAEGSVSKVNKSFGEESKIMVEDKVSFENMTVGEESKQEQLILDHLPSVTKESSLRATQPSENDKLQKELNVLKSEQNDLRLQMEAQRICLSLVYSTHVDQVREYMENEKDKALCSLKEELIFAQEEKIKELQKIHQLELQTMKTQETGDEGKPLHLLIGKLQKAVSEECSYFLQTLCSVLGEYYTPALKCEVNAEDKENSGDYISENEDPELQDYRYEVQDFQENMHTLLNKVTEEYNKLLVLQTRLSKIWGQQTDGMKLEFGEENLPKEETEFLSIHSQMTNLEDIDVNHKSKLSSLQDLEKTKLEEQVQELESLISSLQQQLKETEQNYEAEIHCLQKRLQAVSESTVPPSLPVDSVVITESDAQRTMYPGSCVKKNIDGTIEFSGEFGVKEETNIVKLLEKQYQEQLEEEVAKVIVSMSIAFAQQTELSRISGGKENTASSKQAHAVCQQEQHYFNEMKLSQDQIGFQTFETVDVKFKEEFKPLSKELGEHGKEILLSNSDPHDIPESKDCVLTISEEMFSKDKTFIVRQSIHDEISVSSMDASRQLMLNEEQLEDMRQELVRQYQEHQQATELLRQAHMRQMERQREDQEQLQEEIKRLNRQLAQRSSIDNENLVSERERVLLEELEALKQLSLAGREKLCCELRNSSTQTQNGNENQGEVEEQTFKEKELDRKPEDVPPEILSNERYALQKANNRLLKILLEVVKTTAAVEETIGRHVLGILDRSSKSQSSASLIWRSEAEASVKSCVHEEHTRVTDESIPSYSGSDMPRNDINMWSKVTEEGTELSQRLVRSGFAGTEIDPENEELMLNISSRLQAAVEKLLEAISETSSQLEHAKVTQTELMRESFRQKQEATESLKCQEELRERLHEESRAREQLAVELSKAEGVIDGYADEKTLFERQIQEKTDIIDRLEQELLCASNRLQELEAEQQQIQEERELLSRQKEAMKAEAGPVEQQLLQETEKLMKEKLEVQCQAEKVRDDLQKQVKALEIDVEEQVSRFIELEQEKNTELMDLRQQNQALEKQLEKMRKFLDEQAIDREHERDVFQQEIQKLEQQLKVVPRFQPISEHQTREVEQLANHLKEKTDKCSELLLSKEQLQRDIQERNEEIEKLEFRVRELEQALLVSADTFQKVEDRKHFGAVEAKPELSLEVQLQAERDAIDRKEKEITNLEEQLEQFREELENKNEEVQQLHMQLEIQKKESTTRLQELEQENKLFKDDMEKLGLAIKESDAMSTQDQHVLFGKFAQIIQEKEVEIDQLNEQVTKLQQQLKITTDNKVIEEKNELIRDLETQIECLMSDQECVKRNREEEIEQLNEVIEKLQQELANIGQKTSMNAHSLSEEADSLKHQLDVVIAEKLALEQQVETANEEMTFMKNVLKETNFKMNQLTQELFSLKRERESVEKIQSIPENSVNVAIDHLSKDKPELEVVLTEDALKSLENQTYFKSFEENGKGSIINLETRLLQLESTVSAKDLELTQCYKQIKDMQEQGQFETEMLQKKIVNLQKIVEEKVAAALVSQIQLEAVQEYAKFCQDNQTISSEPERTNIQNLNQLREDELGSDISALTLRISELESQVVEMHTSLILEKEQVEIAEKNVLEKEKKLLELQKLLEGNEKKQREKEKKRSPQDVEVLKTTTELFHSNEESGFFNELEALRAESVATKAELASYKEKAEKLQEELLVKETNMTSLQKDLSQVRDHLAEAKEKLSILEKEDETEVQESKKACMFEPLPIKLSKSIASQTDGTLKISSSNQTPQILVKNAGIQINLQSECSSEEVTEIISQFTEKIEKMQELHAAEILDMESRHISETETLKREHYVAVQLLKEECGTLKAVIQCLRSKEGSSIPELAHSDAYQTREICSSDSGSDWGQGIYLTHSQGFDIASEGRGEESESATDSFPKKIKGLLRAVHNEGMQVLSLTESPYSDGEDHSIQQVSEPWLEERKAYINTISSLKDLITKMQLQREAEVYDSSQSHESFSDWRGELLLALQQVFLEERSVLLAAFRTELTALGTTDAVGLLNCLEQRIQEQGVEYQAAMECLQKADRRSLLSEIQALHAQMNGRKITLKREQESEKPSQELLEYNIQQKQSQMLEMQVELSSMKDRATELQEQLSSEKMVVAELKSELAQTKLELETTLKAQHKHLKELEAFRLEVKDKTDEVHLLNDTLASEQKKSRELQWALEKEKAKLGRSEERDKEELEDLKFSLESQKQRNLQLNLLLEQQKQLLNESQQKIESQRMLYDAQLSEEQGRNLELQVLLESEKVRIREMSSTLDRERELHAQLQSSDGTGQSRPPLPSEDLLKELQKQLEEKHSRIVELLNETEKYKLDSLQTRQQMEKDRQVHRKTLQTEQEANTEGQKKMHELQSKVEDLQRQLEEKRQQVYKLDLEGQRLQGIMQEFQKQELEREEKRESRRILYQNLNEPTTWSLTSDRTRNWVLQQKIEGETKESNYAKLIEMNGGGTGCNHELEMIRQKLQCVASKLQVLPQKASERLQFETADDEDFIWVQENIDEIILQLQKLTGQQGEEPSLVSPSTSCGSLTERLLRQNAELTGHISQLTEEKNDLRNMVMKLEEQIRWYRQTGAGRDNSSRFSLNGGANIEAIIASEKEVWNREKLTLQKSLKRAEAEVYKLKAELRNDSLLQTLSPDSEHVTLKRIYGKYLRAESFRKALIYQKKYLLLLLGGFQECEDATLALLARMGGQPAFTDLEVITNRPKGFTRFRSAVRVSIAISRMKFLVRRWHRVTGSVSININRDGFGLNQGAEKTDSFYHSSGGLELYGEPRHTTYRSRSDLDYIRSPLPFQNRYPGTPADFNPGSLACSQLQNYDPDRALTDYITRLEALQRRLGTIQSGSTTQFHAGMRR
# UniProt Q9BPZ7, whole entry: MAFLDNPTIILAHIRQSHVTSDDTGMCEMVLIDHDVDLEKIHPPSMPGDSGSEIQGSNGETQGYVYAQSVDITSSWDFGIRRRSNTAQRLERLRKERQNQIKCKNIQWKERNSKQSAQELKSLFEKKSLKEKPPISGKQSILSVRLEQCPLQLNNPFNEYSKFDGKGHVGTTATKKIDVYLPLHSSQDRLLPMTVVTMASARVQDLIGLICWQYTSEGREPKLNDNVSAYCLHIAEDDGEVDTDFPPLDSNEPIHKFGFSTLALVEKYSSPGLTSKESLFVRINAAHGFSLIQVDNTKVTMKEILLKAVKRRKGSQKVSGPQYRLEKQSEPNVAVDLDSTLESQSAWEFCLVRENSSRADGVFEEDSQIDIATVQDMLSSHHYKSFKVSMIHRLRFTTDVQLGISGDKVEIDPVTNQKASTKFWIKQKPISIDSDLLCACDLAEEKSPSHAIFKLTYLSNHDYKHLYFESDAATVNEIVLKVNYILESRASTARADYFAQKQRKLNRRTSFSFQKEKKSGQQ
# UniProt Q96TC7: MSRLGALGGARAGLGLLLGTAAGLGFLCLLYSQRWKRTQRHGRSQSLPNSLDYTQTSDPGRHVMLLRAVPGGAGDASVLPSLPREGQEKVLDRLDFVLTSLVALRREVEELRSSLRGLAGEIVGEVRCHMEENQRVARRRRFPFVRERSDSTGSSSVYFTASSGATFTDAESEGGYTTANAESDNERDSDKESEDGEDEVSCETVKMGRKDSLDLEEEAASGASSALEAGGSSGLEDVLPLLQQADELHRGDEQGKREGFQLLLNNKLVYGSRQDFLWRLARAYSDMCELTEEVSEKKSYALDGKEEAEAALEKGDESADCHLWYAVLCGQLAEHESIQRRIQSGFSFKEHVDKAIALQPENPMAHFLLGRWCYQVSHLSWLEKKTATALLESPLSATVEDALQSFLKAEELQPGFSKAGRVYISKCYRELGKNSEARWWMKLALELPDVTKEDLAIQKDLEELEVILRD
# UniProt Q9BQ69: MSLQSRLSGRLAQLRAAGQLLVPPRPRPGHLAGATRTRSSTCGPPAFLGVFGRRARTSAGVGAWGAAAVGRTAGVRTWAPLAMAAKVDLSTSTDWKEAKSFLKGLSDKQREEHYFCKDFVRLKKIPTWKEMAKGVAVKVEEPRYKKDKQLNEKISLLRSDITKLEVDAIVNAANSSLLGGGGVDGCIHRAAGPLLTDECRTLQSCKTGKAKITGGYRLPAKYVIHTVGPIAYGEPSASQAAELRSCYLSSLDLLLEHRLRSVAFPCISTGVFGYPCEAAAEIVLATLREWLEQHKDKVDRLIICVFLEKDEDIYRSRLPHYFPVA
# UniProt Q9BPX5, whole entry: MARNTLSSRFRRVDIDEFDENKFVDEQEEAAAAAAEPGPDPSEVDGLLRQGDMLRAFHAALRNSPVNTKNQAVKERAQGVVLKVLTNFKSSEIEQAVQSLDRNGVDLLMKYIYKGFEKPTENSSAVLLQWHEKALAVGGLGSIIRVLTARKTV
# UniProt Q99757: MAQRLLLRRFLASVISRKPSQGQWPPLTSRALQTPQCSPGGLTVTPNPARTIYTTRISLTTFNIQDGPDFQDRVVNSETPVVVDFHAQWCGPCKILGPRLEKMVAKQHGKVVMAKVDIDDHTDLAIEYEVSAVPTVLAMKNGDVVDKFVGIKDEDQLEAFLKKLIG
# ± gives the standard deviation of the averaged measurements. The entries are a selection whose mix differs from that of the whole data set.
# Compound: Nc1ncnc2c1ncn2[C@@H]1O[C@H](COP(=O)(O)OP(=O)(O)OP(=O)(O)O)[C@@H](O)[C@H]1O [adenosine triphosphate]
# Assay: NP40-soluble protein abundance relative to vehicle (solubility fold change) (ratio); higher = more soluble protein in presence of ATP
# Method in brief: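 Across three independent experiments, values are fold changes against the detergent-processed vehicle for each replicate, based on vsn-normalised intensities. The samples were Jurkat crude lysate treated with eight concentrations (0.1 to 10 mM) for 10 min at room temperature and then 3 min at 37 °C. Lysate was solubilised with 0.8% NP40 and benzonase, ultracentrifuged, and the supernatant analysed by TMT-labelled LC-MS/MS.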
Target,NP40-soluble protein abundance (concentration: 1mM),NP40-soluble protein abundance (concentration: 2mM),NP40-soluble protein abundance (concentration: 4mM),NP40-soluble protein abundance (concentration: 6mM),NP40-soluble protein abundance (concentration: 8mM),NP40-soluble protein abundance (concentration: 10mM)
UniProt Q9BSD7,1.07 ± 0.04,1.06 ± 0.016,1.03 ± 0.034,1.07 ± 0.046,1.04 ± 0.025,1.04 ± 0.034
UniProt Q9BZE9 and related entries,0.945 ± 0.02,0.936 ± 0.053,0.933 ± 0.049,0.936 ± 0.061,0.916 ± 0.043,0.886 ± 0.031
UniProt Q9BVS4,1.09 ± 0.08,1.09 ± 0.074,1.08 ± 0.055,1.14 ± 0.12,1.1 ± 0.073,1.13 ± 0.025
UniProt Q96TA1 and related entries,0.989 ± 0.022,0.99 ± 0.018,0.961 ± 0.02,0.963 ± 0.011,0.987 ± 0.015,0.974 ± 0.025
UniProt Q9BWG4 and related entries,0.974 ± 0.055,1.07 ± 0.17,1.06 ± 0.045,1.03 ± 0.035,1.02 ± 0.028,0.984 ± 0.059
UniProt Q99490-2|Q99490,0.919 ± 0.029,0.907 ± 0.025,0.899 ± 0.032,0.865 ± 0.05,0.885 ± 0.02,0.897 ± 0.02
CCT7 (UniProt Q99832),0.974 ± 0.11,0.908 ± 0.11,0.83 ± 0.021,0.807 ± 0.072,0.86 ± 0.059,0.816 ± 0.065
MRPL32 (UniProt Q9BYC8),1.05 ± 0.14,0.917 ± 0.14,1.01 ± 0.16,0.937 ± 0.3,1.02 ± 0.24,0.904 ± 0.21
GNB1L (UniProt Q9BYB4),1.07 ± 0.031,1.06 ± 0.07,1.08 ± 0.049,1.03 ± 0.093,1.05 ± 0.038,1.03 ± 0.05
SIKE1 (UniProt Q9BRV8),0.917 ± 0.13,0.856 ± 0.079,0.944 ± 0.066,0.902 ± 0.094,0.896 ± 0.014,0.89 ± 0.046
UniProt Q9BYX2 and related entries,0.995 ± 0.093,0.986 ± 0.033,1.03 ± 0.098,1.06 ± 0.1,0.994 ± 0.051,1.01 ± 0.099
UniProt Q9BRX8 and related entries,1.01 ± 0.14,0.976 ± 0.078,0.96 ± 0.071,0.907 ± 0.14,0.969 ± 0.08,0.919 ± 0.049
UniProt Q9BQ75 and related entries,0.922 ± 0.083,0.96 ± 0.075,1.04 ± 0.047,0.971 ± 0.16,1.07 ± 0.05,1.14 ± 0.071
UniProt Q99729-3|Q99729,1.04 ± 0.082,0.984 ± 0.11,0.92 ± 0.053,1.03 ± 0.12,0.938 ± 0.019,0.942 ± 0.02
SDF4 (UniProt Q9BRK5),0.981 ± 0.098,0.988 ± 0.07,0.96 ± 0.032,1.02 ± 0.072,0.956 ± 0.02,0.935 ± 0.052
UniProt Q9BQF6 and related entries,1.13 ± 0.072,1.14 ± 0.074,1.13 ± 0.13,1.17 ± 0.086,1.21 ± 0.056,1.18 ± 0.092
UniProt Q99996-3|Q99996-5|A0A0A0MRF6|Q99996 and related entries,1.02 ± 0.067,0.996 ± 0.078,0.993 ± 0.079,1.02 ± 0.18,0.999 ± 0.12,1.01 ± 0.09
UniProt Q9BQ52 and related entries,1.01 ± 0.025,1 ± 0.018,0.985 ± 0.024,0.958 ± 0.038,0.9823 ± 0.0036,0.994 ± 0.016
UniProt Q9BQI0 and related entries,0.867 ± 0.14,0.888 ± 0.13,0.9 ± 0.12,0.932 ± 0.16,0.898 ± 0.066,0.869 ± 0.13
UniProt Q99504 and related entries,1.06 ± 0.033,1.05 ± 0.044,1.05 ± 0.023,1.02 ± 0.08,0.985 ± 0.089,1.03 ± 0.029

# Pulled one by one from above:
Target,NP40-soluble protein abundance (concentration: 1mM),NP40-soluble protein abundance (concentration: 2mM),NP40-soluble protein abundance (concentration: 4mM),NP40-soluble protein abundance (concentration: 6mM),NP40-soluble protein abundance (concentration: 8mM),NP40-soluble protein abundance (concentration: 10mM)
SDF4 (UniProt Q9BRK5),0.981 ± 0.098,0.988 ± 0.07,0.96 ± 0.032,1.02 ± 0.072,0.956 ± 0.02,0.935 ± 0.052
UniProt Q9BRX8 and related entries,1.01 ± 0.14,0.976 ± 0.078,0.96 ± 0.071,0.907 ± 0.14,0.969 ± 0.08,0.919 ± 0.049
UniProt Q9BWG4 and related entries,0.974 ± 0.055,1.07 ± 0.17,1.06 ± 0.045,1.03 ± 0.035,1.02 ± 0.028,0.984 ± 0.059

# Later entries

Target,NP40-soluble protein abundance (concentration: 1mM),NP40-soluble protein abundance (concentration: 2mM),NP40-soluble protein abundance (concentration: 4mM),NP40-soluble protein abundance (concentration: 6mM),NP40-soluble protein abundance (concentration: 8mM),NP40-soluble protein abundance (concentration: 10mM)
UniProt Q9BPZ7 and related entries,1.02 ± 0.085,1.13 ± 0.31,1.06 ± 0.069,1.04 ± 0.059,1.07 ± 0.075,1.09 ± 0.13
UniProt Q9BW83 and related entries,1.01 ± 0.074,1 ± 0.094,1.01 ± 0.083,0.972 ± 0.093,0.967 ± 0.11,0.955 ± 0.076
DCUN1D5 (UniProt Q9BTE7),1.03 ± 0.092,1.01 ± 0.044,0.967 ± 0.043,0.969 ± 0.1,0.994 ± 0.027,0.964 ± 0.064
GINS3 (UniProt Q9BRX5),0.976 ± 0.053,0.958 ± 0.064,0.938 ± 0.042,0.989 ± 0.057,0.9293 ± 0.0041,0.887 ± 0.076
UniProt Q99460 and related entries,0.929 ± 0.033,0.882 ± 0.026,0.849 ± 0.025,0.867 ± 0.084,0.878 ± 0.059,0.869 ± 0.06
UniProt Q9BYG3,1.05 ± 0.074,1.05 ± 0.073,1.08 ± 0.12,1.1 ± 0.072,1.15 ± 0.13,1.2 ± 0.098
KLF16 (UniProt Q9BXK1),0.952 ± 0.12,0.904 ± 0.11,0.941 ± 0.064,0.946 ± 0.14,0.967 ± 0.16,0.962 ± 0.12
UniProt Q9BV73 and related entries,0.93 ± 0.044,0.928 ± 0.035,0.957 ± 0.049,0.961 ± 0.037,0.929 ± 0.022,0.944 ± 0.024
UniProt Q99623,0.921 ± 0.031,0.894 ± 0.03,0.859 ± 0.015,0.871 ± 0.015,0.885 ± 0.032,0.898 ± 0.046
UniProt Q96TC7,1.05 ± 0.061,1.06 ± 0.028,1.03 ± 0.043,1.06 ± 0.037,1.01 ± 0.065,1.05 ± 0.053
UCK2 (UniProt Q9BZX2),1.02 ± 0.061,1.02 ± 0.052,0.97 ± 0.09,1.01 ± 0.053,1.01 ± 0.085,0.98 ± 0.053
UniProt Q99941 and related entries,1.05 ± 0.13,1.12 ± 0.016,1.01 ± 0.031,1.11 ± 0.0088,1.02 ± 0.019,1.05 ± 0.033
UniProt Q9BZF2,1.16 ± 0.09,1.14 ± 0.11,1.17 ± 0.1,1.09 ± 0.14,1.09 ± 0.095,1.09 ± 0.11
HIRIP3 (UniProt Q9BW71),0.917 ± 0.067,0.931 ± 0.045,0.913 ± 0.037,0.951 ± 0.064,0.908 ± 0.021,0.929 ± 0.029
CDC5L (UniProt Q99459),0.979 ± 0.047,0.997 ± 0.036,1.03 ± 0.034,1.13 ± 0.062,1.12 ± 0.058,1.16 ± 0.031
MACROD1 (UniProt Q9BQ69),0.994 ± 0.074,0.93 ± 0.056,0.903 ± 0.12,0.902 ± 0.085,0.889 ± 0.072,0.866 ± 0.06
NCAPG (UniProt Q9BPX3),0.99 ± 0.033,0.988 ± 0.023,0.974 ± 0.016,0.929 ± 0.012,0.974 ± 0.033,0.967 ± 0.052
UniProt Q9BTK6,0.779 ± 0.094,0.754 ± 0.12,0.736 ± 0.043,0.748 ± 0.071,0.693 ± 0.039,0.674 ± 0.099
UniProt Q9BTY7,0.979 ± 0.084,0.983 ± 0.075,1 ± 0.063,0.989 ± 0.12,1.01 ± 0.066,0.901 ± 0.11
PTDSS2 (UniProt Q9BVG9),0.981 ± 0.15,0.94 ± 0.1,0.964 ± 0.12,0.741 ± 0.069,0.899 ± 0.089,0.877 ± 0.13

Target,NP40-soluble protein abundance (concentration: 1mM),NP40-soluble protein abundance (concentration: 2mM),NP40-soluble protein abundance (concentration: 4mM),NP40-soluble protein abundance (concentration: 6mM),NP40-soluble protein abundance (concentration: 8mM),NP40-soluble protein abundance (concentration: 10mM)
CORO1B (UniProt Q9BR76),1.06 ± 0.091,1.08 ± 0.059,1.06 ± 0.074,1.11 ± 0.081,1.06 ± 0.1,1.09 ± 0.097
EIF2A (UniProt Q9BY44),0.952 ± 0.024,0.952 ± 0.031,0.933 ± 0.0099,0.953 ± 0.051,0.921 ± 0.024,0.951 ± 0.027
THTPA (UniProt Q9BU02),0.888 ± 0.08,0.979 ± 0.051,0.935 ± 0.093,0.936 ± 0.091,0.954 ± 0.13,0.892 ± 0.11
MRPL20 (UniProt Q9BYC9),0.985 ± 0.031,0.941 ± 0.13,1.02 ± 0.23,0.98 ± 0.22,0.926 ± 0.18,0.909 ± 0.18
ARPC5L (UniProt Q9BPX5),0.907 ± 0.08,0.963 ± 0.066,0.982 ± 0.015,0.948 ± 0.04,0.943 ± 0.024,0.894 ± 0.042
C7orf50 (UniProt Q9BRJ6),1.02 ± 0.034,1.05 ± 0.049,1.06 ± 0.05,1.092 ± 0.0098,1.08 ± 0.068,1.25 ± 0.13
UniProt Q9BPX7-2|Q9BPX7,0.979 ± 0.031,0.992 ± 0.047,0.978 ± 0.03,0.978 ± 0.064,0.94 ± 0.063,0.976 ± 0.036
UniProt Q9BVC4 and related entries,0.958 ± 0.028,0.981 ± 0.035,1 ± 0.067,0.938 ± 0.069,0.982 ± 0.073,1 ± 0.079
UniProt Q9BUH6,1.04 ± 0.066,1.06 ± 0.03,1.08 ± 0.015,1.11 ± 0.014,1.05 ± 0.021,1.04 ± 0.06
TXN2 (UniProt Q99757),0.97 ± 0.079,0.96 ± 0.064,0.85 ± 0.17,0.785 ± 0.29,1.02 ± 0.12,0.913 ± 0.092
NUP88 (UniProt Q99567),1.01 ± 0.043,0.999 ± 0.015,1.02 ± 0.012,1.04 ± 0.014,1.07 ± 0.023,1.086 ± 0.0086
UniProt Q9BX67,0.88 ± 0.038,0.939 ± 0.034,0.923 ± 0.016,0.897 ± 0.087,0.891 ± 0.054,0.934 ± 0.041
UniProt Q9BZ95 and related entries,1.21 ± 0.027,1.55 ± 0.19,1.3 ± 0.044,1.36 ± 0.069,1.33 ± 0.029,1.38 ± 0.055
SMAD5 (UniProt Q99717),1.08 ± 0.089,1.133 ± 0.0084,1.115 ± 0.0078,1.1211 ± 0.00047,1.137 ± 0.0041,1.07 ± 0.12
HINT2 (UniProt Q9BX68),1.003 ± 0.0072,0.996 ± 0.015,0.969 ± 0.012,0.971 ± 0.025,0.955 ± 0.062,0.934 ± 0.019
UniProt Q9BUT1 and related entries,0.933 ± 0.036,0.916 ± 0.026,0.915 ± 0.022,0.914 ± 0.014,0.9 ± 0.024,0.89 ± 0.018
RNF2 (UniProt Q99496),1.06 ± 0.025,1.1 ± 0.027,1.15 ± 0.015,1.19 ± 0.016,1.22 ± 0.045,1.32 ± 0.055
UniProt Q9BXW7 and related entries,0.965 ± 0.084,0.937 ± 0.034,0.927 ± 0.046,0.913 ± 0.067,0.947 ± 0.04,0.934 ± 0.022
BCL7B (UniProt Q9BQE9),0.981 ± 0.13,1.03 ± 0.18,0.983 ± 0.14,1.04 ± 0.14,0.957 ± 0.1,0.973 ± 0.15
PELO (UniProt Q9BRX2),1.01 ± 0.08,0.999 ± 0.058,1 ± 0.038,1.01 ± 0.087,1.06 ± 0.035,1.06 ± 0.034
